These are yes or no findings as the source states them, for the method shown. Binding seen in cells or lysates may run through a third protein. Some binding calls cover weakened binding; strength is not graded here. For some assays here: Where a sequence is shown, tags or fusion partners need not be part of it.

From paper PMC8001760 come the findings set out here.

Test [1] concerns the target T1, Flag-mouse lipin-2 (mouse) (UniProt Q99PI5).
T1 sequence: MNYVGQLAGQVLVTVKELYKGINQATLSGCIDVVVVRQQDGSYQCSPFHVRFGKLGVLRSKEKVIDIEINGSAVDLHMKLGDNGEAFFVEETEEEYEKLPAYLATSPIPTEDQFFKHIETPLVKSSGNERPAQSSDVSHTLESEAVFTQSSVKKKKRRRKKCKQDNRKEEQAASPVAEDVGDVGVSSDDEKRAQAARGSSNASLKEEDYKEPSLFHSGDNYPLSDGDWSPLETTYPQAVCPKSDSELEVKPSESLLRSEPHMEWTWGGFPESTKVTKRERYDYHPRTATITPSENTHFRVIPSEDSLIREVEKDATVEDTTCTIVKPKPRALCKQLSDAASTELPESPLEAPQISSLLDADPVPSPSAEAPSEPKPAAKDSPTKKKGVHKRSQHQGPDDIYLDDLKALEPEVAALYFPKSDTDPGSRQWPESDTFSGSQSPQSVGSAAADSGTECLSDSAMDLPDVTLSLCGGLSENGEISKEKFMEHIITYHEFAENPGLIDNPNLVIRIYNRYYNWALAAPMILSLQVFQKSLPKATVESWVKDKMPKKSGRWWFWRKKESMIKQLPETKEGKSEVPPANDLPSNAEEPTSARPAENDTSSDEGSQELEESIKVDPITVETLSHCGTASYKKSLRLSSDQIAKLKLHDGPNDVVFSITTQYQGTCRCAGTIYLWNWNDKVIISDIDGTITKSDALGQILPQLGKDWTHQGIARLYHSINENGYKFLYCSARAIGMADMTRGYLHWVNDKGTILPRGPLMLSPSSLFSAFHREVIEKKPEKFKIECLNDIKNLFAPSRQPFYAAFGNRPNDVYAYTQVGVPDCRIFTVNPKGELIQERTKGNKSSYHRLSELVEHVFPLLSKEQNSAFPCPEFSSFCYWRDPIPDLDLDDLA
The test can be described thus: co-IP; 293T cells co-transfected with Flag- and HA-tagged plasmids; anti-HA or anti-Flag beads, NP-40 lysis buffer (50 mM Tris-Cl pH 7.5, 120 mM NaCl, 0.5% NP-40), 4 °C, 4 h; immunoblot.

Test [2] concerns the target T2, TAK1 (endogenous, RAW-D cells) (mouse (endogenous in RAW-D)) (UniProt Q62073).
T2 sequence: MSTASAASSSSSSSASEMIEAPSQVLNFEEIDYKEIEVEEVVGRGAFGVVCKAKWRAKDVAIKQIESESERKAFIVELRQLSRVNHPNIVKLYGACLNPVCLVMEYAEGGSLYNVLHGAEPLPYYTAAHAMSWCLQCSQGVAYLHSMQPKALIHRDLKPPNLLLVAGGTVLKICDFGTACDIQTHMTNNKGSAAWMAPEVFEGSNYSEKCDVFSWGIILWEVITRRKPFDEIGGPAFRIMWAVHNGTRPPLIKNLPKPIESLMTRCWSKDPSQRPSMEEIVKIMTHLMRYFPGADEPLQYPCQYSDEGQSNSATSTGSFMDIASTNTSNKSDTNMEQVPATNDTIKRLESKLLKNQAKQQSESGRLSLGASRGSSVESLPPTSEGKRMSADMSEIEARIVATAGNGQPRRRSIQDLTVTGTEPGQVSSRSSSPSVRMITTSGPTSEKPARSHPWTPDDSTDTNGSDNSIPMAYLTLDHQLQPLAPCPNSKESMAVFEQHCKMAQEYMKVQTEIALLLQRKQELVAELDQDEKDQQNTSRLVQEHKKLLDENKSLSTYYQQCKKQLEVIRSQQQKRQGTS
The test can be described thus: co-IP; endogenous proteins of RAW-D cells; anti-TAK1 antibody-conjugated beads, normal mouse IgG as control IP, NP-40 lysis buffer, 4 °C, 4 h; immunoblot.

B1: HA-TAK1 (enzyme, UniProt O43318 1-606)
chain: MSTASAASSSSSSSAGEMIEAPSQVLNFEEIDYKEIEVEEVVGRGAFGVVCKAKWRAKDVAIKQIESESERKAFIVELRQLSRVNHPNIVKLYGACLNPVCLVMEYAEGGSLYNVLHGAEPLPYYTAAHAMSWCLQCSQGVAYLHSMQPKALIHRDLKPPNLLLVAGGTVLKICDFGTACDIQTHMTNNKGSAAWMAPEVFEGSNYSEKCDVFSWGIILWEVITRRKPFDEIGGPAFRIMWAVHNGTRPPLIKNLPKPIESLMTRCWSKDPSQRPSMEEIVKIMTHLMRYFPGADEPLQYPCQYSDEGQSNSATSTGSFMDIASTNTSNKSDTNMEQVPATNDTIKRLESKLLKNQAKQQSESGRLSLGASRGSSVESLPPTSEGKRMSADMSEIEARIAATTAYSKPKRGHRKTASFGNILDVPEIVISGNGQPRRRSIQDLTVTGTEPGQVSSRSSSPSVRMITTSGPTSEKPTRSHPWTPDDSTDTNGSDNSIPMAYLTLDHQLQPLAPCPNSKESMAVFEQHCKMAQEYMKVQTEIALLLQRKQELVAELDQDEKDQQNTSRLVQEHKKLLDENKSLSTYYQQCKKQLEVIRSQQQKRQGTS
On to B1, for which the binding entry in test [1] is on record as “binds”.

B2: lipin2 (endogenous, RAW-D cells) (protein, UniProt Q99PI5 1-893)
chain: MNYVGQLAGQVLVTVKELYKGINQATLSGCIDVVVVRQQDGSYQCSPFHVRFGKLGVLRSKEKVIDIEINGSAVDLHMKLGDNGEAFFVEETEEEYEKLPAYLATSPIPTEDQFFKHIETPLVKSSGNERPAQSSDVSHTLESEAVFTQSSVKKKKRRRKKCKQDNRKEEQAASPVAEDVGDVGVSSDDEKRAQAARGSSNASLKEEDYKEPSLFHSGDNYPLSDGDWSPLETTYPQAVCPKSDSELEVKPSESLLRSEPHMEWTWGGFPESTKVTKRERYDYHPRTATITPSENTHFRVIPSEDSLIREVEKDATVEDTTCTIVKPKPRALCKQLSDAASTELPESPLEAPQISSLLDADPVPSPSAEAPSEPKPAAKDSPTKKKGVHKRSQHQGPDDIYLDDLKALEPEVAALYFPKSDTDPGSRQWPESDTFSGSQSPQSVGSAAADSGTECLSDSAMDLPDVTLSLCGGLSENGEISKEKFMEHIITYHEFAENPGLIDNPNLVIRIYNRYYNWALAAPMILSLQVFQKSLPKATVESWVKDKMPKKSGRWWFWRKKESMIKQLPETKEGKSEVPPANDLPSNAEEPTSARPAENDTSSDEGSQELEESIKVDPITVETLSHCGTASYKKSLRLSSDQIAKLKLHDGPNDVVFSITTQYQGTCRCAGTIYLWNWNDKVIISDIDGTITKSDALGQILPQLGKDWTHQGIARLYHSINENGYKFLYCSARAIGMADMTRGYLHWVNDKGTILPRGPLMLSPSSLFSAFHREVIEKKPEKFKIECLNDIKNLFAPSRQPFYAAFGNRPNDVYAYTQVGVPDCRIFTVNPKGELIQERTKGNKSSYHRLSELVEHVFPLLSKEQNSAFPCPEFSSFCYWRDPIPDLDLDDLA
For the molecule B2, the binding entry in test [2] is reported as “binds”.
